Binding data for two molecules are collected here from patent US20110229472A1 (Amgen, published 2011).

The test deals with T1, Recombinant human MPL (human, UniProt P40238 26-491, limits assumed).
T1 construct: also called hu-mpl; hu-MPL
T1 sequence (looked up): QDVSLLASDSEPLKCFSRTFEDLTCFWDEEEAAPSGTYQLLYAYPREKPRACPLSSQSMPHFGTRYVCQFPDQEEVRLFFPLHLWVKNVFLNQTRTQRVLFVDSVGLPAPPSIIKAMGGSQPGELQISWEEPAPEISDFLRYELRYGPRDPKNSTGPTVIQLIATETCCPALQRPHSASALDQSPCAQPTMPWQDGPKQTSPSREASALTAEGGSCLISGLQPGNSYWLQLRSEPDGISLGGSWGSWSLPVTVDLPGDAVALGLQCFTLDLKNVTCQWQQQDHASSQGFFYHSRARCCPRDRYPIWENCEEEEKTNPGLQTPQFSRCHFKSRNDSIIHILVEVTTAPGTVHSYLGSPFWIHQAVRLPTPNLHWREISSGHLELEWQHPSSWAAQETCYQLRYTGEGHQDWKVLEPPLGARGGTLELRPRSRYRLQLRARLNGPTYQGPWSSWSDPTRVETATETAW
In words: phage ELISA titration: phagemid particles displaying the peptide, 5-fold dilution series (cfu/ul), on plate-coated recombinant human MPL, HRP-anti-M13 detection, chemiluminescent readout (Example 1, sections 4B and 5). On the technique in general: In an ELISA, binding on a coated surface is turned into a signal by an enzyme label.

Results are given in words; binding and its absence hold for the method and conditions named. Some results given as binding are weak or reduced against the parent protein; the word gives no strength.

Consider QGCSWGGPTLKQWLQCVRAKHS [TMP23 (22-residue capped peptide)], for which the binding entry is “binds”. The entry for QGCSSGGPTLREWLQCRRMQHS [TMP22 (22-residue capped peptide)] is “binds”.
